The values below come from publication PMC12821908.

Amino acid sequences for entries named in this document (tags omitted).
UniProt O43143: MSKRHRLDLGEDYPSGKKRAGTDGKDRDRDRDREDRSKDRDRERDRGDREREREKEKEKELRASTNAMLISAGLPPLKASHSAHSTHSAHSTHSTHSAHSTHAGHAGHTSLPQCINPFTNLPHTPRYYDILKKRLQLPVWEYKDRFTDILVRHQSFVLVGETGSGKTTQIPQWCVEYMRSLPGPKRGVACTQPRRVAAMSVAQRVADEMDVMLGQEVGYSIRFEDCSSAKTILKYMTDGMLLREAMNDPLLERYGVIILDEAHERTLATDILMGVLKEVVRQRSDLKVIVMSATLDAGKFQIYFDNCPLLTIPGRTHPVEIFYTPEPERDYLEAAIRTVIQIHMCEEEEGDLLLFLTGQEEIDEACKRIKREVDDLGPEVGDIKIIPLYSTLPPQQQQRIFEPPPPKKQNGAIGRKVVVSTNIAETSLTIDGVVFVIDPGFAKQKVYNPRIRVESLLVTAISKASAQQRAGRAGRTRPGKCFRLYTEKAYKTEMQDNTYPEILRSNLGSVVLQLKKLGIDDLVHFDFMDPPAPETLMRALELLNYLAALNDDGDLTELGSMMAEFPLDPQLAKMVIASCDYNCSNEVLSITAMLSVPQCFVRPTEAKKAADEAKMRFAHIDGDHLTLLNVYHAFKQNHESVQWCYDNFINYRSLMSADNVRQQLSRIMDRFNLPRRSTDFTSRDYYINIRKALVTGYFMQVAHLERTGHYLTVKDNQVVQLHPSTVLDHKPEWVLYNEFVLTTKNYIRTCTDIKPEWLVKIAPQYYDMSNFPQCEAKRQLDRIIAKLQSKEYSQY
UniProt Q92769: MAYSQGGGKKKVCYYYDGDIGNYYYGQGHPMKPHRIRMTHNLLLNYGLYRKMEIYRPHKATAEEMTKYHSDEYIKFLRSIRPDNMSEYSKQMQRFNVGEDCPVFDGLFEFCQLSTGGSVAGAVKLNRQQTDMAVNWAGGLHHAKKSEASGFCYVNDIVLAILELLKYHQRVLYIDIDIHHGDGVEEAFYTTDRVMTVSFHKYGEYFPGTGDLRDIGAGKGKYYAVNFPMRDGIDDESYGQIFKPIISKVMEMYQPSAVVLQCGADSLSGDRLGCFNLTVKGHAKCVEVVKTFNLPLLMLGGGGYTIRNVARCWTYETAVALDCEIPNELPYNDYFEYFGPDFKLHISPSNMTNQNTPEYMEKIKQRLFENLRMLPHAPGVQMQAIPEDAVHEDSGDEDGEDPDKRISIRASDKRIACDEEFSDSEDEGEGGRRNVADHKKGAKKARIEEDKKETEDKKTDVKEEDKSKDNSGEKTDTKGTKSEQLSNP

Results are given in words; binding and its absence hold for the method and conditions named. Binding seen in cells or lysates may run through a third protein. Some entries that bind do so weakly or less than the wild type.

The assay addresses Flag-tagged DExH-box helicase 15 (DHX15) wild-type (UniProt O43143). Put plainly: co-IP; UM-UC-3 cells transfected with Flag-DHX15 (alone, or together with HA-HDAC2); lysis in IP buffer (50 mM Tris-HCl pH 7.5, 150 mM NaCl, 1 mM EDTA, 1% Nonidet P-40), antibody overnight at 4 °C, protein A/G agarose beads, five washes, Western blot. For orientation: A western blot detects proteins with antibodies after separation by electrophoresis.

For the substance “endogenous HDAC2 (from UniProt Q92769 1-488) (enzyme)”, the binding entry is recorded as “binds”.

For “HA-tagged HDAC2 (from UniProt Q92769 1-488) (enzyme)”, the binding entry is reported as “binds”.
